Data: paper PMC4714187
These are yes or no findings as the source states them, for the method shown. Some results given as binding are weak or reduced against the parent protein; the word gives no strength.

The chains behind the UniProt entries cited, without tags or fusion partners.
UniProt Q23445: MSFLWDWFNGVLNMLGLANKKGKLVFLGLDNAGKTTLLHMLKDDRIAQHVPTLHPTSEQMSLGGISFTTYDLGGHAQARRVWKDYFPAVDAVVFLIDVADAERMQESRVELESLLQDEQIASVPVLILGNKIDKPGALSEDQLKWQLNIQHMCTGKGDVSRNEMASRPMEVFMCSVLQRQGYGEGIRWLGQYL
UniProt P20606: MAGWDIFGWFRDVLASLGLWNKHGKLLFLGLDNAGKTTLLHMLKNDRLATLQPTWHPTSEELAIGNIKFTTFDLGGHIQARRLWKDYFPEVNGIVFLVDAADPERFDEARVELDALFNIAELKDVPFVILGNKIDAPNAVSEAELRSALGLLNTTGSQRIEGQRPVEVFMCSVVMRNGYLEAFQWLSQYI

How the values were obtained:
[1] = target: C. elegans SAR-1 (C. elegans) (UniProt Q23445); experiment: SEC-MALS; size-exclusion column equilibrated in 500 uM GTP or 500 uM GDP, coupled to three-angle light scattering and refractive index detectors; flow 0.5 ml/min; Sar1 buffer (25 mM HEPES pH 7.2, 100 mM NaCl, 1 mM MgCl2); both purified
[2] = target: S. cerevisiae Sar1p (S. cerevisiae) (UniProt P20606); experiment: as above

binding [1] | binding [2] | Substance
binds weakly |  | C. elegans SAR-1 (from UniProt Q23445 1-193)
 | binds weakly | S. cerevisiae Sar1p (from UniProt P20606 1-190)
